{"source": "the supplement of paper PMC6411743", "molecular_target": "T1, UniProt Q7LGA3 and related entries", "T1 sequence (whole entry)": "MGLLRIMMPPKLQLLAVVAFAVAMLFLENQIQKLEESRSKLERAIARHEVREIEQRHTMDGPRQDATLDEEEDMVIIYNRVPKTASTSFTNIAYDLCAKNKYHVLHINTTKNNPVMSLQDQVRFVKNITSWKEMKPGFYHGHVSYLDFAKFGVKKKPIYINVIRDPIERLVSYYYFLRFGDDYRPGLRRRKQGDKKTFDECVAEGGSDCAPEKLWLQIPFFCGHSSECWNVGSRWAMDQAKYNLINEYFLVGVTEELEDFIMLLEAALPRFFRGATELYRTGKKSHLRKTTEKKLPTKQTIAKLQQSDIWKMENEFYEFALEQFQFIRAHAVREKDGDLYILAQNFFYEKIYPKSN", "assay": "NP40-soluble protein abundance relative to vehicle (solubility fold change) (ratio); higher = more soluble protein in presence of GTP", "experimental": "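Solubility proteome profiling in Jurkat crude lysate. Lysate was treated with Mg-GTP (0.1-10 mM) for 10 min at room temperature and 3 min at 37 °C, then solubilised with 0.8% NP40 and benzonase, followed by ultracentrifugation. Proteins were quantified by TMT10 LC-MS/MS; the value is the NP40-soluble abundance relative to the NP40-processed vehicle, from 3 independent experiments.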", "note": "± gives the standard deviation of the averaged measurements. Some of the results follow."}
{"smiles": "Nc1nc2c(ncn2[C@@H]2O[C@H](COP(=O)(O)OP(=O)(O)OP(=O)(O)O)[C@@H](O)[C@H]2O)c(=O)[nH]1", "note": "[guanosine triphosphate]", "values": [{"measurement": "NP40-soluble protein abundance", "setting": "concentration: 0.1mM", "result": "1.16 ± 0.03"}, {"measurement": "NP40-soluble protein abundance", "setting": "concentration: 0.5mM", "result": "1.16 ± 0.092"}, {"measurement": "NP40-soluble protein abundance", "setting": "concentration: 1mM", "result": "1.24 ± 0.11"}, {"measurement": "NP40-soluble protein abundance", "setting": "concentration: 2mM", "result": "1.23 ± 0.13"}, {"measurement": "NP40-soluble protein abundance", "setting": "concentration: 4mM", "result": "1.39 ± 0.052"}, {"measurement": "NP40-soluble protein abundance", "setting": "concentration: 6mM", "result": "1.34 ± 0.2"}, {"measurement": "NP40-soluble protein abundance", "setting": "concentration: 8mM", "result": "1.38 ± 0.22"}, {"measurement": "NP40-soluble protein abundance", "setting": "concentration: 10mM", "result": "1.42 ± 0.21"}]}
